No constants are given. Whether binding was seen depends on the method and setting. Binding seen in cells or lysates may run through a third protein. A yes stands for co-enrichment or nearness to the bait. Other partners may have been found.
Molecular target: FLAG-WT-PRMT5 (protein arginine methyltransferase 5, wild type) (human) (UniProt O14744)
Assay: affinity purification with mass spectrometry; mass spectrometry identification of kinases immunoprecipitated with WT-PRMT5

Amino acid sequences for entries named in this document (tags omitted).
UniProt O14744: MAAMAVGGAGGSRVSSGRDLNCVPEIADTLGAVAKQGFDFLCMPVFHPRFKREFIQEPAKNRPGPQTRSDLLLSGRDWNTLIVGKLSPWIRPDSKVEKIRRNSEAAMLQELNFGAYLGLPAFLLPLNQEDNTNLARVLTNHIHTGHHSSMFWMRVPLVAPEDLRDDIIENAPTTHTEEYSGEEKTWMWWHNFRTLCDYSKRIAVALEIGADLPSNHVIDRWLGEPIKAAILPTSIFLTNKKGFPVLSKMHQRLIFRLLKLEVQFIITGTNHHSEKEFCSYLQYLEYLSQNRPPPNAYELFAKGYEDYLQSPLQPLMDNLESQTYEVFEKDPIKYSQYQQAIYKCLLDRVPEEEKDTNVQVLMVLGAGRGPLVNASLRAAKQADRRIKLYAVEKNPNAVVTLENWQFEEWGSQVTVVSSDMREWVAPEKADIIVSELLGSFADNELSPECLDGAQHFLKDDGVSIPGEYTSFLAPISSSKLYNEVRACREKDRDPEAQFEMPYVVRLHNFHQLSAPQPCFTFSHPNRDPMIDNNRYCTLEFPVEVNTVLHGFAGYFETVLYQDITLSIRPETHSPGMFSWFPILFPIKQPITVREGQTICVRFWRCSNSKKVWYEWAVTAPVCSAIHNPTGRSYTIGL

binding: binds
B1: PKCι (enzyme, UniProt P41743 1-596)
chain: MPTQRDSSTMSHTVAGGGSGDHSHQVRVKAYYRGDIMITHFEPSISFEGLCNEVRDMCSFDNEQLFTMKWIDEEGDPCTVSSQLELEEAFRLYELNKDSELLIHVFPCVPERPGMPCPGEDKSIYRRGARRWRKLYCANGHTFQAKRFNRRAHCAICTDRIWGLGRQGYKCINCKLLVHKKCHKLVTIECGRHSLPQEPVMPMDQSSMHSDHAQTVIPYNPSSHESLDQVGEEKEAMNTRESGKASSSLGLQDFDLLRVIGRGSYAKVLLVRLKKTDRIYAMKVVKKELVNDDEDIDWVQTEKHVFEQASNHPFLVGLHSCFQTESRLFFVIEYVNGGDLMFHMQRQRKLPEEHARFYSAEISLALNYLHERGIIYRDLKLDNVLLDSEGHIKLTDYGMCKEGLRPGDTTSTFCGTPNYIAPEILRGEDYGFSVDWWALGVLMFEMMAGRSPFDIVGSSDNPDQNTEDYLFQVILEKQIRIPRSLSVKAASVLKSFLNKDPKERLGCHPQTGFADIQGHPFFRNVDWDMMEQKQVVPPFKPNISGEFGLDNFDSQFTNEPVQLTPDDDDIVRKIDQSEFEGFEYINPLLMSAEECV
